Taken from: PubChem BioAssay AID652259 (Drosophila RNAi Screening Center, 2013)

- Purpose: 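Genome-wide hunt for genes that control Wingless pathway activity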 (primary screen)
- Cells: Drosophila clone 8 imaginal disc epithelial cells
- Knock-down reagent: long dsRNA against Drosophila genes
- Conditions: pathway stimulated by co-transfected Wingless expression plasmid
- Detection: 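Firefly luciferase from a tcf-site Wingless reporter, measured alongside co-transfected Renilla luciferase that tracks transfection; pathway stimulated by a Wingless plasmid; the firefly-to-Renilla ratio is not deposited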
- Direction: firefly reporter light: higher = more Wg reporter light, before normalisation; Renilla control light: higher = more transfected or surviving cells
- Hit rule: 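Strong candidates differ from their plate mean by at least two out of four per-plate statistical tests; weak candidates meet just one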
- Calls: active = candidate regulator (raises or lowers reporter); inactive = not a candidate
In all, the deposit lists about 22,000 reagents; this is an unselected part of those with a known target gene and a result. Over the whole deposit, 233 (1.1%) are marked active. 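Light values are raw, unnormalised plate reads; the ratio scores behind the reporter calls were not deposited.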 Unmarked entries are inactive. The numbers tell different reagents against one gene apart. A plus sign joins genes that one reagent is predicted to hit. Not stated in the record: the amount of reagent, the time to read-out, the dose of the treatment.

CG13796 + CG31904
- firefly reporter light, replicate 1: 4.48e5
- firefly reporter light, replicate 2: 5.28e5
- Renilla control light, replicate 1: 1.90e5
- Renilla control light, replicate 2: 2.20e5

udd (under-developed)
- firefly reporter light, replicate 1: 1520
- firefly reporter light, replicate 2: 6085
- Renilla control light, replicate 1: 790
- Renilla control light, replicate 2: 2896

qvr (quiver)
- firefly reporter light, replicate 1: 16354
- Renilla control light, replicate 1: 13412

l(2)k14505 (lethal (2) k14505)
- firefly reporter light, replicate 1: 5878
- Renilla control light, replicate 1: 1609

CG9864
- firefly reporter light, replicate 1: 4816
- Renilla control light, replicate 1: 1755

Mcm3 (Minichromosome maintenance 3)
- firefly reporter light, replicate 1: 1692
- firefly reporter light, replicate 2: 4450
- Renilla control light, replicate 1: 599
- Renilla control light, replicate 2: 1523

Bx42
- firefly reporter light, replicate 1: 2647
- firefly reporter light, replicate 2: 5392
- Renilla control light, replicate 1: 349
- Renilla control light, replicate 2: 711

CG15025
- firefly reporter light, replicate 1: 14042
- Renilla control light, replicate 1: 2896

CG42850 (retired record)
- firefly reporter light, replicate 1: 3191
- Renilla control light, replicate 1: 946

CG7255
- firefly reporter light, replicate 1: 2551
- Renilla control light, replicate 1: 1426

Cdep (Chondrocyte-derived ezrin-like domain containing protein) #1
- firefly reporter light, replicate 1: 4084
- Renilla control light, replicate 1: 2006

Cdep (Chondrocyte-derived ezrin-like domain containing protein) #2
- reporter change call, replicate 1: Wg reporter activity lowered
- firefly reporter light, replicate 1: 6902
- Renilla control light, replicate 1: 1516

Cdep (Chondrocyte-derived ezrin-like domain containing protein) #3
- firefly reporter light, replicate 1: 10864
- Renilla control light, replicate 1: 4678

Dpp10 (Dipeptidyl peptidase 10) #1
- firefly reporter light, replicate 1: 19040
- Renilla control light, replicate 1: 8390

Dpp10 (Dipeptidyl peptidase 10) #2
- firefly reporter light, replicate 1: 2964
- firefly reporter light, replicate 2: 3289
- Renilla control light, replicate 1: 791
- Renilla control light, replicate 2: 1467

Oatp74D (Organic anion transporting polypeptide 74D) #1
- firefly reporter light, replicate 1: 3532
- Renilla control light, replicate 1: 1352

Oatp74D (Organic anion transporting polypeptide 74D) #2
- firefly reporter light, replicate 1: 6129
- Renilla control light, replicate 1: 2359

CG18467
- firefly reporter light, replicate 1: 7072
- Renilla control light, replicate 1: 2770

S-Lap8 (Sperm-Leucylaminopeptidase 8) #1
- firefly reporter light, replicate 1: 19962
- Renilla control light, replicate 1: 7602

S-Lap8 (Sperm-Leucylaminopeptidase 8) #2
- firefly reporter light, replicate 1: 3.28e5
- firefly reporter light, replicate 2: 4.07e5
- Renilla control light, replicate 1: 1.67e5
- Renilla control light, replicate 2: 1.56e5

Idgf6 (Imaginal disc growth factor 6)
- firefly reporter light, replicate 1: 15020
- Renilla control light, replicate 1: 4171

Bap60 (Brahma associated protein 60kD)
- firefly reporter light, replicate 1: 3256
- firefly reporter light, replicate 2: 10960
- Renilla control light, replicate 1: 485
- Renilla control light, replicate 2: 1597

Dic1
- firefly reporter light, replicate 1: 5488
- Renilla control light, replicate 1: 2640

Nmda1 (N-methyl-D-aspartate receptor-associated protein)
- firefly reporter light, replicate 1: 8104
- Renilla control light, replicate 1: 2768

CG4707
- firefly reporter light, replicate 1: 7782
- Renilla control light, replicate 1: 2800
